# Measurements: the supplement of paper PMC8728848
# This is one part of the list.
# B1: AcfC (Vibrio cholerae), Q57410 (protein)
# chain: MKSKNRFLLISLLSFSTSVFADVNLYGPGGPHVPLIKVAESFEKSQSKRVNITFGPQATWNDKAKKNADILFGASEHSALAIAEGHSERFSKFNIHPVFMREAIILVKKGNPKNIKGMADLLKPGIGIVVNDGAGVSNTSGTAVWEDSVGRMKNVEKLQAFRSNIHVFAPNSGSARKAFVDGEDIDAWITWVDWAIANPTIGDMVRMEDEYRIYRDFNVVLAKNPSSEAIDFFDYLTKSKDAEAIFQHYGWFK
# Tests used:
# Test in all cases: glycan array binding signal (z-score within array); higher = stronger binding
# Details in all cases: glycan notation: IUPAC condensed, linker removed
# Neu5Ac(a2-8)Neu5Ac = molecular target: Neu5Ac(a2-8)Neu5Ac
# Procedure, shortened: (§1)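 The Consortium for Functional Glycomics database supplied 3228 glycan arrays, of which those lacking an available protein sequence were dropped. The binding signal, a within-array Z-score, was averaged across arrays of the same protein sequence and across linkers. Negative scores can be read as non-binding.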
# [1] = molecular target: Neu5Ac(a2-8)Neu5Ac(a2-3)Gal(b1-4)Glc
# Procedure, shortened: as §1
# [2] = molecular target: Neu5Ac(a2-8)Neu5Ac(a2-3)[GalNAc(b1-4)]Gal(b1-4)Glc
# Procedure, shortened: as §1
# [3] = molecular target: Neu5Ac(a2-8)Neu5Ac(a2-8)Neu5Ac
# Procedure, shortened: as §1
# [4] = molecular target: Neu5Ac(a2-8)Neu5Ac(a2-8)Neu5Ac(a2-3)Gal(b1-4)Glc
# Procedure, shortened: as §1
# [5] = molecular target: Neu5Ac(a2-8)Neu5Ac(a2-8)Neu5Ac(a2-3)[GalNAc(b1-4)]Gal(b1-4)Glc
# Procedure, shortened: as §1
# [6] = molecular target: Neu5Ac(a2-8)Neu5Ac(a2-8)Neu5Ac(a2-8)Neu5Ac(a2-3)[GalNAc(b1-4)]Gal(b1-4)Glc
# Procedure, shortened: as §1
# [7] = molecular target: Neu5Ac(b2-6)Gal(b1-4)GlcNAc
# Procedure, shortened: as §1
# Neu5Ac(b2-6)GalNAc = molecular target: Neu5Ac(b2-6)GalNAc
# Procedure, shortened: as §1
# [8] = molecular target: Neu5Ac9Ac(a2-3)Gal(b1-3)GlcNAc
# Procedure, shortened: as §1
# [9] = molecular target: Neu5Ac9Ac(a2-3)Gal(b1-4)GlcNAc
# Procedure, shortened: as §1
# [10] = molecular target: Neu5Ac9Ac(a2-6)Gal(b1-4)GlcNAc
# Procedure, shortened: as §1
# [11] = molecular target: Neu5Gc(a2-3)Gal(b1-3)GlcNAc
# Procedure, shortened: as §1
# [12] = molecular target: Neu5Gc(a2-3)Gal(b1-3)[Fuc(a1-4)]GlcNAc
# Procedure, shortened: as §1
# Neu5Gc(a2-3)Gal(b1-4)Glc = molecular target: Neu5Gc(a2-3)Gal(b1-4)Glc
# Procedure, shortened: as §1
# [13] = molecular target: Neu5Gc(a2-3)Gal(b1-4)GlcNAc
# Procedure, shortened: as §1
# [14] = molecular target: Neu5Gc(a2-3)Gal(b1-4)[Fuc(a1-3)]GlcNAc
# Procedure, shortened: as §1
# [15] = molecular target: Neu5Gc(a2-6)Gal(b1-4)GlcNAc
# Procedure, shortened: as §1
# Neu5Gc(a2-6)GalNAc = molecular target: Neu5Gc(a2-6)GalNAc
# Procedure, shortened: as §1
# [16] = molecular target: Neu5Gc(b2-6)Gal(b1-4)GlcNAc
# Procedure, shortened: as §1
binder,measurement,setting,value
B1,glycan array binding signal (z-score),Neu5Ac(a2-8)Neu5Ac,0.214
same,glycan array binding signal (z-score),[1],-0.126
same,glycan array binding signal (z-score),[2],-0.835
same,glycan array binding signal (z-score),[3],-0.292
same,glycan array binding signal (z-score),[4],0.225
same,glycan array binding signal (z-score),[5],-0.786
same,glycan array binding signal (z-score),[6],0.753
same,glycan array binding signal (z-score),[7],-0.194
same,glycan array binding signal (z-score),Neu5Ac(b2-6)GalNAc,-0.737
same,glycan array binding signal (z-score),[8],-0.008
same,glycan array binding signal (z-score),[9],-1.48
same,glycan array binding signal (z-score),[10],-0.009
same,glycan array binding signal (z-score),[11],-0.149
same,glycan array binding signal (z-score),[12],-0.461
same,glycan array binding signal (z-score),Neu5Gc(a2-3)Gal(b1-4)Glc,0.347
same,glycan array binding signal (z-score),[13],-0.421
same,glycan array binding signal (z-score),[14],-0.11
same,glycan array binding signal (z-score),[15],-0.173
same,glycan array binding signal (z-score),Neu5Gc(a2-6)GalNAc,-0.625
same,glycan array binding signal (z-score),[16],2.14

# Copied from the listing for reference:
binder,measurement,setting,value
B1,glycan array binding signal (z-score),Neu5Gc(a2-6)GalNAc,-0.625
same,glycan array binding signal (z-score),[16],2.14
